Data as given in paper PMC8984140.
Results are given in words; binding and its absence hold for the method and conditions named. Binding seen in cells or lysates may run through a third protein. Some entries that bind do so weakly or less than the wild type. Sequences can lack the tags named with a protein.

Amino acid sequences for entries named in this document (tags omitted).
UniProt O88275: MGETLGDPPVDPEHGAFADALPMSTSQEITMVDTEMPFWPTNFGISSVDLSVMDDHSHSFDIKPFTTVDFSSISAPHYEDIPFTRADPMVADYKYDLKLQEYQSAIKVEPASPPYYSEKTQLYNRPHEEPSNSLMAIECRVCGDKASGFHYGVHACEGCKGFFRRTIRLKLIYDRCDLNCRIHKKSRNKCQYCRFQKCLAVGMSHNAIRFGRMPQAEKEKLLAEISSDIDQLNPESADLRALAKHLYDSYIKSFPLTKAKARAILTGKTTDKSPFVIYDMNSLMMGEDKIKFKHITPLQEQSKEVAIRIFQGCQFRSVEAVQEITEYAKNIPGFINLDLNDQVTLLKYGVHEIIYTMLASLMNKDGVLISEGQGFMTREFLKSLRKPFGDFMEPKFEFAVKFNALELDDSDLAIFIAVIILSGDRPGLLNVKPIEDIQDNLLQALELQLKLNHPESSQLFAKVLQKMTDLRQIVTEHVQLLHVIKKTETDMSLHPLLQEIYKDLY

How the values were obtained:
[1] = target: peroxisome proliferator-activated receptor γ (PPARγ) (rat (endogenous in primary astrocytes)) (UniProt O88275); test: co-IP; lysate of primary rat astrocytes (500 μg protein) precipitated with rabbit polyclonal anti-PPARγ antibody and protein A-Sepharose, washed six times (buffer pH 7.4, 10 mM MgCl2, 1% NP-40), blotted for PGC-1α and HDAC3; cells were control, OGD/R, OGD/R + α-asaronol, or OGD/R + α-asaronol + GW9662
[2] = target: peroxisome proliferator-activated receptor γ (PPARγ) (rat (endogenous in primary astrocytes)) (UniProt O88275); test: condition: only OGD and α-asaronol treatment of the astrocytes; co-IP; same anti-PPARγ co-IP; astrocytes after OGD and α-asaronol treatment

| binding [1] | binding [2] | Binder |
| --- | --- | --- |
| binds | no binding | histone deacetylase 3 (HDAC3) (protein, UniProt Q6P6W3 1-428) MAKTVAYFYDPDVGNFHYGAGHPMKPHRLALTHSLVLHYGLYKKMIVFKPYQASQHDMCRFHSEDYIDFLQRVSPTNMQGFTKSLNAFNVGDDCPVFPGLFEFCSRYTGASLQGATQLNNKICDIAINWAGGLHHAKKFEASGFCYVNDIVIGILELLKYHPRVLYIDIDIHHGDGVQEAFYLTDRVMTVSFHKYGNYFFPGTGDMYEVGAESGRYYCLNVPLRDGIDDQSYKHLFQPVISQVVDFYQPTCIVLQCGADSLGCDRLGCFNLSIRGHGECVEYVKSFNIPLLVLGGGGYTVRNVARCWTYETSLLVEEAISEELPYSEYFEYFAPDFTLHPDVSTRIENQNSRQYLDQIRQTIFENLKMLNHAPSVQIHDVPADLLTYDRTDEADAEERGPEENYSRPEAPNEFYDGDHDNDKESDVEI |
| binds |  | peroxisome proliferator-activated receptor-γ coactivator-1 alpha (PGC-1α) (protein, UniProt Q9QYK2 1-796) MAWDMCSQDSVWSDIECAALVGEDQPLCPDLPELDLSELDVNDLDTDSFLGGLKWCSDQSEIISNQYNNEPANIFEKIDEENEANLLAVLTETLDSLPVDEDGLPSFDALTDGDVTTDNEASPSSMPDGTPPPQEAEEPSLLKKLLLAPANTQLSYNECSGLSTQNHANHTHRIRTNPAIVKTENSWSNKAKSICQQQKPQRRPCSELLKYLTTNDDPPHTKPTENRNSSRDKCASKKKSHTQPQSQHAQAKPTTLSLPLTPESPNDPKGSPFENKTIERTLSVELSGTAGLTPPTTPPHKANQDNPFKASPKLKPSCKTVVPPPTKRARYSECSGTQGSHSTKKGPEQSELYAQLSKSSVLSRGHEERKTKRPSLRLFGDHDYCQSVNSKTDILINISQELQDSRQLDFKDASCDWQGHICSSTDSSQCYLRETLEASKQVSPCSTRKQLQDQEIRAELNKHFGHPSQAVFDDKVDKTSELRDGNFSNEQFSKLPVFINSGLAMDGLFDDSEDENDKLSYPWDGTQSYSLFDVSPSCSSFNSPCRDSVSPPKSLFSQRPQRMRSRSRSFSRHRSCSRSPYSRSRSRSPGSRSSSRSCYYYESSHYRHRTHRNSPLYVRSRSRSPYSRRPRYDSYEANEHERLKRDEYRREYEKRESERAKQRERQKQKAIEERRVIYVGKIRPDTTRTELRDRFEVFGEIEECTVNLRDDGDSYGFITYRYTCDAFAALENGYTLRRSNETDFELYFCGRKQFFKSNYADLDSNSDDFDPASTKSKYDSLDFDSLLKEAQRSLRR |
